Test results taken from patent US7232800B2, “Derivatives of magainin and methods of production thereof” (priority 2001, dated 2007).
Where “and” joins values, the source holds several entries; their conditions need not be identical. Identical values can stand only once. Like-named read-outs stand apart in the source and are kept apart here. At least one peptide structure holds a part that was inferred or is arguable (an end, a ring closure or a residue). Where no end group is shown, it is not given here.

System: Escherichia coli JM103
Format: cell-based
Description: The anti-microbial effect of the Magainin(Leu21, Ser23, Arg24) was conducted according to the following procedures, with the comparison of that of the naturally occurring Magainin.
The bacterial strain of Escherichia coli JM103 and staphylococcus aureus were employed.
The bacteria were cultivated at 37° centigrade, and diluted to 1×10^6 bacteria/ml. 20 mM of the sterilized Tris-HCl buffer (pH6.5) was added. Then the Magainin derivative and the naturally occurring Magainin II with various concentrations were added respectively, and incubated at 37° centigrade for different time, 50 μl of the cultures was taken and spread on an agar plate, and incubated at 37° centigrade overnight. The remaining bacteria colonies were accounted for, and the percent of the killed bacteria was calculated.
The ant-microbial effects of Magainin (Leu21, Ser23, Arg24) were tested with comparison with that of the naturally occurring Magainin II. […] The anti-microbial effect of Magainin (Leu21, Ser23, Arg24) on Staphylococcus aureus can be seen from table 4, and the result of time-kill study of Magainin (Leu21, Ser23, Arg24) was shown in FIG. 1.

[1] = 10 μg/ml, 3 hr, second line (average of the two counts)
[2] = 10 μg/ml, 3 hr, single plate counts
[3] = 10 μg/ml, 4 hr, second line (average of the two counts)
[4] = 10 μg/ml, 4 hr, single plate counts
[5] = 20 μg/ml, 3 hr, second line (average of the two counts)
[6] = 20 μg/ml, 4 hr, second line (average of the two counts)

For “GIGKFLHSAKKFGKAFVGEILNSR [Magainin (Leu21, Ser23, Arg24)]”, which Bacteria colonies remained [1] is on record?
The Bacteria colonies remained was 91.

And the Bacteria colonies remained [2]?
The Bacteria colonies remained was 109 and 73.

And the Bacteria colonies remained [3]?
Its Bacteria colonies remained is 177.

What about the Bacteria colonies remained [4] of the same sequence?
The Bacteria colonies remained was 160 and 195.

And the Bacteria colonies remained [5]?
Its Bacteria colonies remained is 7.

What about the Bacteria colonies remained (20 μg/ml, 3 hr, single plate counts) of the same sequence?
The Bacteria colonies remained was 9 and 5.

What about the Bacteria colonies remained [6] of the same sequence?
Its Bacteria colonies remained is 3.

What about the “anti-microbial effects on Escherichia coli (in words)” value (compared with naturally occurring Magainin) of the same sequence?
Its value is “obvious ant-microbial effects”.

For “GIGKFLHSAKKFGKAFVGEIMNS [Naturally occurring Magainin, Magainin II, reference compound]”, which Bacteria colonies remained [1] is on record?
Its Bacteria colonies remained is 78.

And the Bacteria colonies remained [2]?
The Bacteria colonies remained was 99 and 57.

What about the Bacteria colonies remained [3] of the same sequence?
Its Bacteria colonies remained is 48.

And the Bacteria colonies remained [4]?
Its Bacteria colonies remained is 52 and 44.

And the Bacteria colonies remained [5]?
Its Bacteria colonies remained is 8.

What about the Bacteria colonies remained [6] of the same sequence?
The Bacteria colonies remained was 5.

And the Bacteria colonies remained (20 μg/ml, 4 hr, single plate counts)?
Its Bacteria colonies remained is 6 and 4.
